Experimental data published in EP3092214B1, “NITROSAMINE/NITRITE INHIBITION IN TERTIARY ALKYLAMINE OXIDE COMPOSITIONS” (EOC Surfactants N.V., priority 2014, dated 2015).

Assay: Synthesis tests of cocamidopropylamine oxide with candidate inhibitors: amido-amine residual content by UV-HPLC
Conditions: additive 0,1% by weight on amido-amine

In the case of `O=C(O)CN(CCN(CC(=O)O)CC(=O)O)CCN(CC(=O)O)CC(=O)O` [DTPA Na, diethylene triamine pentaacetic acid], the Content of amido-amine (Temp 70 °C) is reported as 0,16%.

For `O=P(O)(O)CN(CCN(CP(=O)(O)O)CP(=O)(O)O)CCN(CP(=O)(O)O)CP(=O)(O)O` [DTPMP, diethylenetriamine penta(methylene phosphonic acid)], the Content of amido-amine (Temp 50 °C) was 0,29% and the Content of amido-amine (Temp 70 °C) was 0,14%.

In the case of `O=C(O)CN(CCN(CC(=O)O)CC(=O)O)CC(=O)O` [EDTA, ethylenediaminetetraacetic acid], the Content of amido-amine (Temp 50 °C) is reported as 0,30% and the Content of amido-amine (Temp 70 °C) is reported as 0,23%.
